PubChem BioAssay AID504774 – Drosophila RNAi Screening Center | 2011

Test: 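Fly genes whose loss alters survival after alkylation damage to DNA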 (primary screen)
System: Drosophila Kc167 cells
Reagent: long dsRNA against Drosophila genes, about 0.25 µg dsRNA per well
Duration: about 6 days: 3 days knock-down, then 3 days with or without MMS
Conditions: methyl methanesulphonate 0.004% (w/v) for 3 days after knock-down
Measured: 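Viability in wells given MMS, read as ATP luminescence, normalised by quantiles plate by plate and averaged across replicates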
Direction: mean viability with MMS and viability with MMS: higher = more surviving cells after MMS
The screen tested about 23,000 reagents; below is a random part of those that have a named target and a result. 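Values are quantile-normalised luminescence on an arbitrary scale; higher means more cells surviving MMS.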 Names joined by + are all predicted targets of the reagent. Not all columns of the deposit are shown.

predicted target	amplicon	mean viability with MMS	viability with MMS, replicate 1
beat-IV	DRSC14195	3.63e6	4.06e6
beat-IV	DRSC14673	3.35e6	3.79e6
CG13527	DRSC04169	3.61e6	4.11e6
Spf45	DRSC03826	3.44e6	3.91e6
CG8517	DRSC07205	3.55e6	4.14e6
SMC2	DRSC07544	3.55e6	4.02e6
Tnpo	DRSC11309	3.31e6	3.78e6
CG31223	DRSC15115	3.37e6	3.85e6
Mal-A8	DRSC07234	3.64e6	4.09e6
Unc-115b + p24-2 + Unc-115a	DRSC16502	3.48e6	3.98e6
Or22a	DRSC00764	3.45e6	3.82e6
Kots	DRSC16581	3.72e6	4.21e6
Oseg6	DRSC06066	3.46e6	3.84e6
CG14354	DRSC14817	3.44e6	3.84e6
Ars2	DRSC04893	3.06e6	3.56e6
Egfrap	DRSC09963	3.47e6	3.92e6
Egfrap	DRSC09964	3.46e6	3.87e6
Tom40	DRSC18796	3.29e6	3.70e6
Ucp4A	DRSC19996	3.64e6	4.12e6
nur	DRSC01342	3.24e6	3.63e6
CG17486	DRSC07752	3.56e6	3.97e6
Agpat3	DRSC10445	3.57e6	4.13e6
CG7079	DRSC16192	3.40e6	3.88e6
zormin	DRSC07969	3.59e6	4.01e6
zormin	DRSC08210	3.56e6	4.05e6
zormin	DRSC08212	3.52e6	4.05e6
zormin	DRSC08213	3.62e6	4.12e6
zormin	DRSC08297	3.58e6	4.10e6
zormin	DRSC08571	3.37e6	3.84e6
zormin	DRSC22483	3.64e6	4.09e6
Gr36c	DRSC02437	3.49e6	4.06e6
rudhira	DRSC19821	2.79e6	3.26e6
rudhira	DRSC22111	3.67e6	4.17e6
rudhira	DRSC23144	3.71e6	4.26e6
CG33258	DRSC09415	3.58e6	4.23e6
lncRNA:CR30055	DRSC22439	3.63e6	4.16e6
CG8170	DRSC07087	3.53e6	4.04e6
Vago	DRSC19833	3.67e6	4.14e6
CIAPIN1	DRSC03559	3.68e6	4.20e6
Pde9	DRSC19746	3.72e6	4.30e6
Pde9	DRSC19874	3.48e6	3.94e6
Pde9	DRSC19875	3.62e6	4.01e6
Pde9	DRSC19876	3.77e6	4.21e6
CG13046	DRSC09927	3.48e6	3.95e6
Mst57Da + alpha4GT2	DRSC13732	3.45e6	3.91e6
CG13587	DRSC04223	3.52e6	4.08e6
CG2915	DRSC06842	3.65e6	4.08e6
CG31820	DRSC21318	3.57e6	3.90e6
CG18666	DRSC02694	3.71e6	4.05e6
BBS1	DRSC10196	1.84e6	3.91e6
CG33468	DRSC22940	3.48e6	3.96e6
CG30467	DRSC07097	3.38e6	3.94e6
CG33255 (retired record) + hpRNA:CR32205 + hpRNA:CR32207	DRSC09617	3.58e6	4.01e6
Manf	DRSC14091	3.66e6	4.09e6
Cyp9b1	DRSC07389	3.55e6	4.04e6
CG32249	DRSC08101	3.53e6	4.01e6
CG32249	DRSC08177	3.77e6	4.33e6
CG32249	DRSC22444	3.53e6	4.00e6
spz3	DRSC02391	3.50e6	3.91e6
spz3	DRSC03008	3.45e6	3.90e6
CG10973	DRSC09813	3.51e6	4.03e6
CG12885	DRSC14572	3.49e6	3.94e6
CG32428	DRSC11697	3.33e6	3.73e6
CG32428	DRSC11768	3.59e6	4.06e6
Stlk	DRSC22687	3.60e6	4.05e6
CG31141	DRSC13646	3.56e6	4.02e6
CG14823	DRSC10194	3.63e6	4.22e6
CG13494	DRSC04139	3.62e6	4.06e6
Brr2	DRSC10559	3.27e6	3.69e6
CG17217	DRSC02592	3.60e6	4.03e6
CR40441	DRSC22916	3.64e6	4.01e6
Secp43	DRSC00454	3.55e6	4.07e6
CG3335	DRSC10358	3.37e6	3.75e6
Tengl1	DRSC00481	3.55e6	4.03e6
CG6614	DRSC02974	3.75e6	4.27e6
CG13807	DRSC08342	3.57e6	4.03e6
mdy	DRSC01559	3.54e6	4.05e6
mdy	DRSC02250	3.64e6	4.00e6
TwdlL	DRSC16042	3.70e6	4.07e6
sphinx1	DRSC10993	3.51e6	3.90e6
CG7879	DRSC08600	3.53e6	3.82e6
MAPk-Ak2	DRSC18678	3.70e6	4.39e6
CG5854	DRSC15894	1.64e6	3.85e6
ssp	DRSC10252	3.38e6	3.85e6
CG1532	DRSC20516	3.68e6	3.96e6
Apl	DRSC10350	3.59e6	4.00e6
shep	DRSC08748	3.00e6	3.57e6
shep	DRSC09765	3.50e6	4.04e6
shep	DRSC09771	3.32e6	3.79e6

Taken from above.
Entry of BBS1 [DRSC10196] in “viability with MMS, replicate 1”: 3.91e6
CG32428 [DRSC11697], viability with MMS, replicate 1 = 3.73e6
For “viability with MMS, replicate 1”, CG13807 [DRSC08342] has 4.03e6
Value for Ars2 [DRSC04893] in “viability with MMS, replicate 1”: 3.56e6
Value for mdy [DRSC02250] in “mean viability with MMS”: 3.64e6
Result for MAPk-Ak2 [DRSC18678] in “mean viability with MMS”: 3.70e6
